Literature values in patent US20220040100A1, “Stable Acyclovir Sodium Parenteral Formulation” (RK Pharma Solutions LLC, priority 2020, published 2022).
Where a name gives a salt, the structure may show the parent alone.

Details: 25° C.

Nc1nc2c(ncn2COCCO)c(=O)[nH]1 [Acyclovir sodium, 2-amino-1,9-dihydro-9-[(2-hydroxyethoxy)methyl]-6H-purin-6-one monosodium salt]
maximum solubility in water: exceeds 100 mg/mL
